Reference: PubChem BioAssay AID248 (DTP/NCI, 2004)
The list shows only some results of the screen, not a fair sample: it is rich in T/C values a quarter to a half above the control, in often repeated tests (any T/C) and in doses without a T/C. Other doses and runs of a compound stand elsewhere. T/C: endpoint of the treated group in % of that of the vehicle group. Some entries give survivors of the animals treated and no T/C: the source holds a T/C of zero for them, seemingly a mark for toxic or unscored doses. Some doses without a T/C left all or most animals alive at the check, yet need not have been tolerated: the source hardly ever lists a survival T/C far under the control, and the zero likely stands for such cases as well. Survivors were counted at the toxicity check, usually on the fifth day, unless a day is given; later deaths do not show. Schedules are NCI's codes, taken here to give the interval after Q, in days (D) or hours (H), and the number of doses after X. Some doses were run more than once; the values are given in rising order. Some schedules carry Z or #; the key to these is not given. Where survival is the endpoint, the PubChem record calls one and a half times the control and up active, and a quarter to a half above the control has no call in these data; cut-offs in other NCI protocols can differ. Signs of the kind (2×) give the number of equal values in this list. Some T/C values carry the count of animals alive at the toxicity check (mostly the fifth day); without a count, all were alive then.

System: L1210 leukemia ip in BDF1 mice, survival T/C
Experiment: NCI In Vivo Anticancer Drug Screen. Data for tumor model L1210 Leukemia (intraperitoneal) in B6D2F1 (BDF1) mice
Conditions: T/C endpoint: mean survival time, higher T/C = longer survival
[1] = dose: 400.0 mg/kg/injection, schedule: Q01DX001 (ip), vehicle: saline
[2] = dose: 25.0 mg/kg/injection, schedule: Q01DX009 (ip), vehicle: saline
[3] = dose: 400.0 mg/kg/injection, schedule: Q04DX003 (ip), vehicle: saline with Tween-80
[4] = dose: 400.0 mg/kg/injection, schedule: Q01DX009 (ip), vehicle: Klucel (hydroxypropylcellulose) (HPC)
[5] = dose: 100.0 mg/kg/injection, schedule: Q01DX009 (ip), vehicle: saline with Tween-80
[6] = dose: 200.0 mg/kg/injection, schedule: Q01DX009 (ip), vehicle: saline with Tween-80
[7] = dose: 50.0 mg/kg/injection, schedule: Q01DX009 (ip), vehicle: saline
[8] = dose: 100.0 mg/kg/injection, schedule: Q01DX009 (ip), vehicle: saline
[9] = dose: 200.0 mg/kg/injection, schedule: Q04DX003 (ip), vehicle: saline
[10] = dose: 400.0 mg/kg/injection, schedule: Q04DX003 (ip), vehicle: saline
[11] = dose: 150.0 mg/kg/injection, schedule: Q01DX001 (ip), vehicle: carboxymethylcellulose (CMC)
[12] = dose: 300.0 mg/kg/injection, schedule: Q01DX001 (ip), vehicle: carboxymethylcellulose (CMC)

## CCOC(=O)[C@H]1CCC[C@@H](NC(=O)N(CCCl)N=O)C1
dose: 125.0 mg/kg/injection, schedule: Q01DX001 (ip), vehicle: other
  survivor count: 6 of 6
dose: 250.0 mg/kg/injection, schedule: Q01DX001 (ip), vehicle: other
  survivor count: 6 of 6
dose: 375.0 mg/kg/injection, schedule: Q01DX001 (ip), vehicle: other
  survivor count: 4 of 6
dose: 500.0 mg/kg/injection, schedule: Q01DX001 (ip), vehicle: other
  survivor count: 1 of 6
dose: 750.0 mg/kg/injection, schedule: Q01DX001 (ip), vehicle: other
  survivor count: 0 of 6
dose: 1000.0 mg/kg/injection, schedule: Q01DX001 (ip), vehicle: other
  survivor count: 1 of 6

## CN=C(N)c1ccc(NC(=O)/C=C\c2ccc(C(=O)Nc3ccc(C(N)=NC)cc3)cc2)cc1
dose: 15.0 mg/kg/injection, schedule: Q01DX Z (ip), vehicle: saline
  T/C: 129 and 147 % of control
dose: 30.0 mg/kg/injection, schedule: Q01DX Z (ip), vehicle: saline
  T/C: 149 % of control [5 of 6 alive]
dose: 240.0 mg/kg/injection, schedule: Q01DX Z (ip), vehicle: saline
  T/C: 134 % of control

## CC[C@H](c1ccc(O)cc1)[C@@H](CC)c1ccc(O)cc1
dose: 500.0 mg/kg/injection, schedule: Q01DX010 (sc), vehicle: steroid suspending solution
  survivor count: 3 of 6

## Oc1ccc(O)c2c1CNCC2O (stereo unspecified)
[1]
  survivor count: 0 of 6

## CN(C)CC(C(=O)c1ccc(Br)cc1)C(Br)c1ccccc1 (stereo unspecified)
dose: 6.25 mg/kg/injection, schedule: Q01DX009 (ip), vehicle: saline
  survivor count: 0 of 6
dose: 12.5 mg/kg/injection, schedule: Q01DX009 (ip), vehicle: saline
  survivor count: 0 of 6
[2]
  survivor count: 0 of 6
dose: 50.0 mg/kg/injection, schedule: Q04DX003 (ip), vehicle: saline with Tween-80
  survivor count: 3 of 6
dose: 100.0 mg/kg/injection, schedule: Q04DX003 (ip), vehicle: saline with Tween-80
  survivor count: 5 of 6
dose: 200.0 mg/kg/injection, schedule: Q04DX003 (ip), vehicle: saline with Tween-80
  survivor count: 3 of 6
[3]
  survivor count: 0 of 6

## O=C(Nc1ccccn1)Nc1ccccn1
dose: 100.0 mg/kg/injection, schedule: Q01DX009 (ip), vehicle: Klucel (hydroxypropylcellulose) (HPC)
  survivor count: 6 of 6
dose: 200.0 mg/kg/injection, schedule: Q01DX009 (ip), vehicle: Klucel (hydroxypropylcellulose) (HPC)
  survivor count: 6 of 6
[4]
  survivor count: 0 of 6 and 6 of 6

## Cc1cc(C)c(NC(=O)c2cc(C(=O)O)c(C(=O)Nc3c(C)cc(C)cc3C)cc2C(=O)O)c(C)c1
[5]
  T/C: 93, 94, 100 % of control
  survivor count: 3 of 3
[6]
  T/C: 87, 91 (2×), 107 % of control

## COC(=O)C1CCC(NC(=O)NCCCl)CC1 (stereo unspecified)
dose: 400.0 mg/kg/injection, schedule: Q01DX001 (ip), vehicle: Klucel (hydroxypropylcellulose) (HPC)
  survivor count: 3 of 5

## CC(=O)C[n+]1ccccc1Br
dose: 250.0 mg/kg/injection, schedule: Q01DX015 (ip), vehicle: water
  survivor count: 1 of 6
dose: 500.0 mg/kg/injection, schedule: Q01DX015 (ip), vehicle: water
  survivor count: 0 of 6

## CC(=O)Nc1cc2c(cc1Br)-c1ccc(F)cc1C2
dose: 1600.0 mg/kg/injection, schedule: Q01DX Z (ip), vehicle: saline
  survivor count: 1 of 6

## COC(=O)C1C(O)CC2CCC1[N+]2(C)C (stereo unspecified)
[1]
  survivor count: 0 of 6

## O=C(Cl)c1ccc([N+](=O)[O-])cc1
[3]
  survivor count: 2 of 6

## CCc1ccc(/C=C/c2ccc[nH]2)[n+](C)c1
dose: 100.0 mg/kg/injection, schedule: Q01DX001 (ip), vehicle: carboxymethylcellulose (CMC)
  survivor count: 1 of 6
dose: 200.0 mg/kg/injection, schedule: Q01DX001 (ip), vehicle: carboxymethylcellulose (CMC)
  survivor count: 0 of 6
dose: 400.0 mg/kg/injection, schedule: Q01DX001 (ip), vehicle: carboxymethylcellulose (CMC)
  survivor count: 0 of 6

## CCCCCCCCCCCCCCCCCCNC(=O)NCCN(C)c1ccccc1
dose: 200.0 mg/kg/injection, schedule: Q01DX009 (ip), vehicle: carboxymethylcellulose (CMC)
  survivor count: 3 of 3
dose: 400.0 mg/kg/injection, schedule: Q01DX009 (ip), vehicle: carboxymethylcellulose (CMC)
  survivor count: 3 of 3 and 6 of 6

## COc1c2c(cc3c1OCO3)[C@@]13CCN(C2)[C@@H]1CC=C[C@H]3O
dose: 20.0 mg/kg/injection, schedule: Q01DX001 (ip), vehicle: carboxymethylcellulose (CMC)
  survivor count: 0 of 6
dose: 40.0 mg/kg/injection, schedule: Q01DX001 (ip), vehicle: carboxymethylcellulose (CMC)
  survivor count: 0 of 6
dose: 80.0 mg/kg/injection, schedule: Q01DX001 (ip), vehicle: carboxymethylcellulose (CMC)
  survivor count: 0 of 6

## C/C=C/C(=O)Nc1cccc(OC(=O)NC(C)(C)C)c1
[6]
  survivor count: 6 of 6

## Nc1ccc2ncccc2c1
dose: 400.0 mg/kg/injection, schedule: Q01DX009 (ip), vehicle: saline
  survivor count: 0 of 6

## Cc1c2cccc(Sc3ccccc3)c2c2c3c(cccc13)[S+](c1ccccc1)C2 (stereo unspecified)
dose: 25.0 mg/kg/injection, schedule: Q01DX001 (ip), vehicle: saline with Tween-80
  survivor count: 0 of 6
[2]
  survivor count: 1 of 6
[7]
  survivor count: 2 of 6
dose: 100.0 mg/kg/injection, schedule: Q01DX001 (ip), vehicle: saline
  survivor count: 3 of 6
dose: 200.0 mg/kg/injection, schedule: Q01DX001 (ip), vehicle: saline
  survivor count: 0 of 6
[1]
  survivor count: 2 of 6

## CC(=O)OCc1c[n+]([O-])c(C)c(OC(C)=O)c1COC(C)=O
[2]
  survivor count: 4 of 6
[7]
  survivor count: 0 of 6
[8]
  survivor count: 0 of 6
dose: 100.0 mg/kg/injection, schedule: Q04DX003 (ip), vehicle: saline
  survivor count: 4 of 6 and 5 of 6
[9]
  survivor count: 0 of 6
[10]
  survivor count: 0 of 6

## COc1cc2c(cc1[N+](=O)[O-])-c1ccc([N+](=O)[O-])cc1/C2=N/NC(N)=S
[11]
  survivor count: 0 of 6
[12]
  survivor count: 0 of 6

## CCOP(=O)(NC12CC3CC(CC(C3)C1)C2)OCC
[4]
  survivor count: 1 of 6

## O=C(O)c1ccc(CCl)cc1
dose: 400.0 mg/kg/injection, schedule: Q04DX002 (ip), vehicle: saline with Tween-80
  survivor count: 2 of 6

## COC(=O)CC(C(=O)OC)N1CC1 (stereo unspecified)
[11]
  survivor count: 3 of 6
[12]
  survivor count: 1 of 6

## COc1ccc2c(c1)CCC1=C2CCC(C)(C(C)=O)C1C(=O)O (stereo unspecified)
dose: 200.0 mg/kg/injection, schedule: Q04DX003 (ip), vehicle: Klucel (hydroxypropylcellulose) (HPC)
  survivor count: 6 of 6
dose: 400.0 mg/kg/injection, schedule: Q04DX003 (ip), vehicle: Klucel (hydroxypropylcellulose) (HPC)
  survivor count: 5 of 6

## O=c1c2ccccc2oc2ccccc12
[3]
  survivor count: 4 of 6

## NC(CCC(=O)O)C(=O)NC(CO)C(=O)O (stereo unspecified)
dose: 400.0 mg/kg/injection, schedule: Q01DX001 (ip), vehicle: saline with Tween-80
  survivor count: 3 of 3

## Cc1cc(C)c(C(=O)CCN(C)C)c(C)c1
[8]
  survivor count: 2 of 6
[9]
  survivor count: 0 of 6
[10]
  survivor count: 0 of 6

## CCS(=O)(=O)/C=C/c1cccs1
[4]
  survivor count: 0 of 6

## Cc1ccc(NC(=O)c2ccccc2)cc1[As]=[As]c1cc(NC(=O)c2ccccc2)ccc1C (stereo unspecified)
dose: 8.0 mg/kg/injection, schedule: Q01DX015 (ip), vehicle: carboxymethylcellulose (CMC)
  survivor count: 0 of 6

## Nc1cc([N+](=O)[O-])ccc1Nc1ccccc1
dose: 50.0 mg/kg/injection, schedule: Q01DX009 (ip), vehicle: DMSO
  survivor count: 6 of 6
dose: 100.0 mg/kg/injection, schedule: Q01DX009 (ip), vehicle: DMSO
  survivor count: 0 of 6
dose: 200.0 mg/kg/injection, schedule: Q04DX003 (ip), vehicle: DMSO
  survivor count: 0 of 6
dose: 400.0 mg/kg/injection, schedule: Q04DX003 (ip), vehicle: DMSO
  survivor count: 0 of 6
